Taken from: PubChem BioAssay AID1259424 (University of Nebraska Medical Center, 2018)
Shown is an unselected part of about 14,000 deposited reagents. 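Higher correlation or smaller distance means closer resemblance to KSR1 loss; control wells, including KSR1 knockdowns, recur on many plates.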 Reagent sequences are not shown. Not given: the time to read-out.

- Screen: 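Find knockdowns that reproduce the expression shifts seen after KSR1 loss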 (primary screen)
- System: human HCT116 colon cancer cells
- Knock-down reagent: siRNA pool against human genes, 50 nM
- Measurement: 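Six signature mRNAs by branched-DNA multiplex assay, scaled to two housekeeping genes and non-targeting median, log2; matched to mean KSR1 knockdown profile by Pearson correlation and euclidean distance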
- Direction: mean correlation with KSR1 profile and KSR1 correlation: higher = expression change more like KSR1 knockdown; mean distance from KSR1 profile: higher = expression change less like KSR1 knockdown

no.	gene	mean correlation with KSR1 profile	mean distance from KSR1 profile	KSR1 correlation, replicate 1	KSR1 correlation, replicate 2	KSR1 correlation, replicate 3
1	CD36 (CD36 molecule (CD36 blood group))	0.171	1.97	0.158	0.0637	0.275
2	CLK4 (CDC like kinase 4)	0.597	1.59	0.58	0.508	0.445
3	ASIC2 (acid sensing ion channel subunit 2)	-0.456	4.31	-0.51	-0.592	-0.396
4	NISCH (nischarin)	0.0475	2.83	0.278	-0.0955	0.0031
5	CTC1 (CST telomere replication complex component 1)	0.726	1.42	0.264	0.727	0.757
6	TAS1R3 (taste 1 receptor member 3)	0.27	3.63	0.358	0.00918	0.244
7	GABRA6 (gamma-aminobutyric acid type A receptor subunit alpha6)	0.382	1.83	0.424	0.0256	0.442
8	CLPS (colipase)	-0.551	2.6	-0.547	-0.668	-0.571
9	EDF1 (endothelial differentiation related factor 1)	-0.906	3.84	-0.811	-0.911	-0.839
10	CLIP2 (CAP-Gly domain containing linker protein 2)	-0.299	1.4	-0.0505	-0.457	-0.383
11	FSHB (follicle stimulating hormone subunit beta)	-0.681	2.13	-0.758	-0.705	-0.48
12	TMEM14C (transmembrane protein 14C)	-0.573	3.11	-0.696	-0.525	-0.174
13	HPGDS (hematopoietic prostaglandin D synthase)	-0.566	2.77	-0.648	-0.592	-0.608
14	SRPX2 (sushi repeat containing protein X-linked 2)	0.619	1.13	0.42	0.617	0.42
15	NR2F6 (nuclear receptor subfamily 2 group F member 6)	-0.523	5.3	-0.503	-0.435	-0.639
16	COL9A1 (collagen type IX alpha 1 chain)	-0.333	3.33	-0.318	-0.34	-0.435
17	CDC73 (cell division cycle 73)	-0.658	3.03	-0.888	-0.436	-0.64
18	TUBB6 (tubulin beta 6 class V)	0.631	1.13	0.558	0.755	0.434
19	AKAP7 (A-kinase anchoring protein 7)	0.643	1.53	0.737	0.73	0.0966
20	CFAP92 (cilia and flagella associated protein 92 (putative))	0.182	1.45	0.197	0.216	0.192
21	CLIP1 (CAP-Gly domain containing linker protein 1)	0.592	1.16	0.679	0.404	0.293
22	KHDC4 (KH domain containing 4, pre-mRNA splicing factor)	-0.567	1.64	-0.206	-0.548	-0.836
23	RABEPK (Rab9 effector protein with kelch motifs)	0.137	2.35	-0.0662	0.0348	0.484
24	POLR2I (RNA polymerase II subunit I)	-0.349	2.64	-0.205	-0.0427	-0.433
25	ZEB2 (zinc finger E-box binding homeobox 2)	0.294	1.95	-0.0687	-0.0842	0.538
26	NDUFS8 (NADH:ubiquinone oxidoreductase core subunit S8)	-0.0967	2.86	-0.217	-0.265	0.0293
27	BRF1 (BRF1 general transcription factor IIIB subunit)	-0.146	3.96	-0.238	-0.155	-0.0949
28	COL14A1 (collagen type XIV alpha 1 chain)	-0.205	2.06	-0.18	-0.41	-0.147
29	LYAR (Ly1 antibody reactive)	-0.511	2.77	-0.601	-0.505	-0.424
30	IFT81 (intraflagellar transport 81)	-0.644	2.67	-0.669	-0.615	-0.746
31	SEPTIN11 (septin 11)	-0.0945	2.04	0.177	-0.252	-0.0318
32	IGF1 (insulin like growth factor 1)	-0.0631	1.34	-0.131	-0.0459	0.0383
33	GABRB2 (gamma-aminobutyric acid type A receptor subunit beta2)	-0.316	4.35	-0.672	-0.392	0.0343
34	ADAM17 (ADAM metallopeptidase domain 17)	-0.00139	1.87	0.128	-0.0319	-0.256
35	ZSWIM5 (zinc finger SWIM-type containing 5)	0.842	0.542	0.623	0.568	0.729
36	KCNH1 (potassium voltage-gated channel subfamily H member 1)	-0.234	2.62	-0.327	-0.192	-0.203
37	TMX2 (thioredoxin related transmembrane protein 2)	-0.168	1.93	0.0174	0.118	-0.11
38	CISH (cytokine inducible SH2 containing protein)	0.82	0.676	0.848	0.627	0.856
39	GSK3A (glycogen synthase kinase 3 alpha)	0.776	1.71	0.876	0.767	0.384
40	MAD2L1 (mitotic arrest deficient 2 like 1)	-0.397	3.79	-0.491	-0.385	-0.502
41	TXNRD3 (thioredoxin reductase 3)	0.17	1.34	0.0354	0.0232	0.4
42	ZNF107 (zinc finger protein 107)	-0.606	1.79	-0.684	-0.443	-0.215
43	CNOT11 (CCR4-NOT transcription complex subunit 11)	-0.321	2.02	-0.33	-0.487	-0.377
44	SAMHD1	-0.137	1.78	-0.0473	-0.302	-0.0135
45	CUL5 (cullin 5)	-0.314	1.73	-0.526	-0.155	-0.405
46	PEX11B (peroxisomal biogenesis factor 11 beta)	-0.575	1.64	-0.824	-0.486	-0.454
47	ACY1 (aminoacylase 1)	-0.624	3.29	-0.475	-0.391	-0.748
48	PTPN1 (protein tyrosine phosphatase non-receptor type 1)	-0.283	1.9	-0.326	-0.588	0.0575
49	SLC35D2	-0.942	1.5	-0.851	-0.574	-0.89
50	UPK1B (uroplakin 1B)	0.194	1.08	0.567	-0.465	0.239

Records above whose gene name begins with K or k:
gene	mean correlation with KSR1 profile	mean distance from KSR1 profile	KSR1 correlation, replicate 1	KSR1 correlation, replicate 2	KSR1 correlation, replicate 3
KHDC4 (KH domain containing 4, pre-mRNA splicing factor)	-0.567	1.64	-0.206	-0.548	-0.836
KCNH1 (potassium voltage-gated channel subfamily H member 1)	-0.234	2.62	-0.327	-0.192	-0.203
